According to patent US20260217692A1 (Ascentage Pharma (Suzhou) Co., Ltd., priority 2023, published 2026):
Structures can show the parent of a compound that is named as a salt. This continues a long series; more values of the same kind are listed elsewhere.

Experiments:
Format in all cases: physicochemical
[1] = Polymorph screening test, heating and cooling method (crystal form by XRPD); conditions: free base screening, dissolved at 50° C., cooled to 4° C.
Source text: (§1) The results are as follows:

[2] = Polymorph screening test, volatilization method (crystal form by XRPD)
Source text: as §1
A total of 15 slow volatilization tests were set up using different solvent systems. […] The resulting solid was collected and subjected to the XRPD test.
A total of 10 slow volatilization tests were set up using different solvent systems. […] The resulting solid was collected and subjected to the XRPD test.
A total of 3 slow volatilization tests were set up using different solvent systems. […] The resulting solid was collected and subjected to the XRPD test.

[3] = Polymorph screening test, poor solvent / anti-solvent method (crystal form by XRPD); conditions: stirred 5 days
Source text: as §1

[4] = Polymorph screening test, suspension method (crystal form by XRPD after stirring in solvent); conditions: suspension method, 40° C., 3 days
Protocol: (or 50° C.) for 3 days in the dark and centrifuged to remove the supernatant; the resulting precipitate was dried under vacuum (25° C., −0.1 MPa); and the resulting solid was collected and subjected to the XRPD test. The results are as follows:
(or 50° C./80° C.) for 3 days in the dark and centrifuged to remove the supernatant; and the resulting precipitate was dried under vacuum (25° C., −0.1 MPa).
(or 50° C.) for 3 days in the dark and centrifuged to remove the supernatant; and the resulting precipitate was dried under vacuum (25° C., −0.1 MPa).

[5] = slow volatilization at room temperature, DCM
[6] = slow volatilization at room temperature, DCM/MeOH(1:1, v/v)

Cc1cc(Nc2ncc(Cl)c(Nc3ccccc3S(=O)(=O)C(C)C)n2)c(OC(C)C)cc1C1=CCN(C2CCOCC2)CC1
Crystal form (XRPD) ([1]; 1,4-Dioxane): Crystal form G
Crystal form (XRPD) ([1]; ACN/DCM(1:1, v/v)): Crystal form D
Crystal form (XRPD) ([1]; Acetone): Crystal form E
Crystal form (XRPD) ([1]; DCM): No solid sample was obtained
Crystal form (XRPD) ([1]; EtOAc): Crystal form D
Crystal form (XRPD) ([1]; EtOH/DCM(2:1, v/v)): No solid sample was obtained
Crystal form (XRPD) ([1]; IPA/DCM(1:1, v/v)): No solid sample was obtained
Crystal form (XRPD) ([1]; MeOH/DCM(3:1, v/v)): Crystal form O
Crystal form (XRPD) ([1]; THF): Crystal form D
Crystal form (XRPD) ([1]; iPrOAc/DCM(1:1, v/v)): Crystal form D
Crystal form (XRPD) ([2]; free base screening, slow volatilization at room temperature from 1,4-Dioxane): Crystal form N
Crystal form (XRPD) ([2]; free base screening, slow volatilization at room temperature from ACN/DCM(10:3)): Crystal form D
Crystal form (XRPD) ([2]; free base screening, slow volatilization at room temperature from Acetone): Crystal form D
Crystal form (XRPD) ([2]; free base screening, slow volatilization at room temperature from DCM): No solid sample was obtained
Crystal form (XRPD) ([2]; free base screening, slow volatilization at room temperature from EtOAc): Crystal form D
Crystal form (XRPD) ([2]; free base screening, slow volatilization at room temperature from EtOH/DCM(5:1)): Crystal form L
Crystal form (XRPD) ([2]; free base screening, slow volatilization at room temperature from IPA/DCM(5:1)): Crystal form M
Crystal form (XRPD) ([2]; free base screening, slow volatilization at room temperature from MeOH/DCM(5:1)): Crystal form K
Crystal form (XRPD) ([2]; free base screening, slow volatilization at room temperature from THF): No solid sample was obtained
Crystal form (XRPD) ([2]; free base screening, slow volatilization at room temperature from iPrOAc/DCM(5:1)): Crystal form D
Crystal form (XRPD) ([3]; free base screening, good solvent DCM, poor solvent ACN): Crystal form D
Crystal form (XRPD) ([3]; free base screening, good solvent DCM, poor solvent Acetone): Crystal form E
Crystal form (XRPD) ([3]; free base screening, good solvent DCM, poor solvent EA): Crystal form D
Crystal form (XRPD) ([3]; free base screening, good solvent DCM, poor solvent MTBE): Crystal form D
Crystal form (XRPD) ([3]; free base screening, good solvent DCM, poor solvent MeOH): No solid sample was obtained
Crystal form (XRPD) ([3]; free base screening, good solvent DCM, poor solvent Water): No solid sample was obtained
Crystal form (XRPD) ([3]; free base screening, good solvent DCM, poor solvent n-Heptane): Crystal form D
Crystal form (XRPD) ([3]; free base screening, good solvent DMF, poor solvent MTBE): No solid sample was obtained
Crystal form (XRPD) ([3]; free base screening, good solvent DMF, poor solvent Water): Crystal form J
Crystal form (XRPD) ([3]; free base screening, good solvent DMF, poor solvent n-Heptane): No solid sample was obtained
Crystal form (XRPD) ([3]; free base screening, good solvent Dioxane, poor solvent MTBE): No solid sample was obtained
Crystal form (XRPD) ([3]; free base screening, good solvent Dioxane, poor solvent Water): Crystal form C
Crystal form (XRPD) ([3]; free base screening, good solvent Dioxane, poor solvent n-Heptane): Crystal form G
Crystal form (XRPD) ([3]; free base screening, good solvent NMP, poor solvent MTBE): No solid sample was obtained
Crystal form (XRPD) ([3]; free base screening, good solvent NMP, poor solvent Water): Crystal form C
Crystal form (XRPD) ([3]; free base screening, good solvent NMP, poor solvent n-Heptane): No solid sample was obtained
Crystal form (XRPD) ([3]; free base screening, good solvent THF, poor solvent ACN): Crystal form D
Crystal form (XRPD) ([3]; free base screening, good solvent THF, poor solvent Acetone): No solid sample was obtained
Crystal form (XRPD) ([3]; free base screening, good solvent THF, poor solvent EA): No solid sample was obtained
Crystal form (XRPD) ([3]; free base screening, good solvent THF, poor solvent MTBE): Crystal form D
Crystal form (XRPD) ([3]; free base screening, good solvent THF, poor solvent MeOH): Crystal form P
Crystal form (XRPD) ([3]; free base screening, good solvent THF, poor solvent Water): Crystal form R
Crystal form (XRPD) ([3]; free base screening, good solvent THF, poor solvent n-Heptane): Crystal form Q

Cc1cc(Nc2ncc(Cl)c(Nc3ccccc3S(=O)(=O)C(C)C)n2)c(OC(C)C)cc1C1=CCN(C2CCOCC2)CC1 [one equivalent of succinate crystal form D]
Crystal form (XRPD) ([4]; 1,4-Dioxane): Crystal form D
Crystal form (XRPD) ([4]; Acetone/water (1:2)): Crystal form D
Crystal form (XRPD) ([4]; Acetone): Crystal form D
Crystal form (XRPD) ([4]; Acetonitrile/water (1:1)): Crystal form D
Crystal form (XRPD) ([4]; Acetonitrile): Crystal form D
Crystal form (XRPD) ([4]; Dichloromethane): Crystal form D
Crystal form (XRPD) ([4]; Ethanol): Crystal form D
Crystal form (XRPD) ([4]; Ethyl acetate): Crystal form D
Crystal form (XRPD) ([4]; Methanol/water (3:1)): Crystal form D
Crystal form (XRPD) ([4]; Methanol): Crystal form D
Crystal form (XRPD) ([4]; Tetrahydrofuran): Crystal form B
Crystal form (XRPD) ([4]; Water): Crystal form D
Crystal form (XRPD) ([4]; n-Heptane): Crystal form D
Crystal form (XRPD) [2, 5]: Crystal form D
Crystal form (XRPD) [2, 6]: Crystal form D
Crystal form (XRPD) ([2]; slow volatilization at room temperature, DCM/acetone (1:1, v/v)): Crystal forms A + D
Crystal form (XRPD) ([3]; anti-solvent method, good solvent DMSO, poor solvent Water): No solid sample was obtained
Crystal form (XRPD) ([3]; anti-solvent method, good solvent DMSO, poor solvent n-Heptane): Crystal form D

Cc1cc(Nc2ncc(Cl)c(Nc3ccccc3S(=O)(=O)C(C)C)n2)c(OC(C)C)cc1C1=CCN(C2CCOCC2)CC1 [one equivalent of tartrate crystal form B]
Crystal form (XRPD) ([4]; 1,4-Dioxane): Crystal form B
Crystal form (XRPD) ([4]; Acetone/water (1:2)): No solid sample was obtained
Crystal form (XRPD) ([4]; Acetone): Crystal form B
Crystal form (XRPD) ([4]; Acetonitrile/water (1:1)): No solid sample was obtained
Crystal form (XRPD) ([4]; Acetonitrile): Crystal form C
Crystal form (XRPD) ([4]; Dichloromethane): No solid sample was obtained
Crystal form (XRPD) ([4]; Ethanol): Crystal form E
Crystal form (XRPD) ([4]; Ethyl acetate): Crystal form D
Crystal form (XRPD) ([4]; Methanol/water (3:1)): No solid sample was obtained
Crystal form (XRPD) ([4]; Methanol): Crystal form F
Crystal form (XRPD) ([4]; Tetrahydrofuran): Crystal form B
Crystal form (XRPD) ([4]; Water): No solid sample was obtained
Crystal form (XRPD) ([4]; n-Heptane): Crystal form B
Crystal form (XRPD) [2, 5]: No solid sample was obtained
Crystal form (XRPD) [2, 6]: Amorphous form
Crystal form (XRPD) ([2]; slow volatilization at room temperature, DCM/acetone (2:1, v/v)): Amorphous form
Crystal form (XRPD) ([3]; anti-solvent method, good solvent DCM, poor solvent Water): No solid sample was obtained
Crystal form (XRPD) ([3]; anti-solvent method, good solvent DCM, poor solvent n-Heptane): Crystal form C
